Results as given in PMC11311407.
These are yes or no findings as the source states them, for the method shown. In cells and extracts the contact can be indirect. Some binding calls cover weakened binding; strength is not graded here.

Sequences of proteins named here, by UniProt entry; tags and fusion partners are left off.
UniProt Q63HN8: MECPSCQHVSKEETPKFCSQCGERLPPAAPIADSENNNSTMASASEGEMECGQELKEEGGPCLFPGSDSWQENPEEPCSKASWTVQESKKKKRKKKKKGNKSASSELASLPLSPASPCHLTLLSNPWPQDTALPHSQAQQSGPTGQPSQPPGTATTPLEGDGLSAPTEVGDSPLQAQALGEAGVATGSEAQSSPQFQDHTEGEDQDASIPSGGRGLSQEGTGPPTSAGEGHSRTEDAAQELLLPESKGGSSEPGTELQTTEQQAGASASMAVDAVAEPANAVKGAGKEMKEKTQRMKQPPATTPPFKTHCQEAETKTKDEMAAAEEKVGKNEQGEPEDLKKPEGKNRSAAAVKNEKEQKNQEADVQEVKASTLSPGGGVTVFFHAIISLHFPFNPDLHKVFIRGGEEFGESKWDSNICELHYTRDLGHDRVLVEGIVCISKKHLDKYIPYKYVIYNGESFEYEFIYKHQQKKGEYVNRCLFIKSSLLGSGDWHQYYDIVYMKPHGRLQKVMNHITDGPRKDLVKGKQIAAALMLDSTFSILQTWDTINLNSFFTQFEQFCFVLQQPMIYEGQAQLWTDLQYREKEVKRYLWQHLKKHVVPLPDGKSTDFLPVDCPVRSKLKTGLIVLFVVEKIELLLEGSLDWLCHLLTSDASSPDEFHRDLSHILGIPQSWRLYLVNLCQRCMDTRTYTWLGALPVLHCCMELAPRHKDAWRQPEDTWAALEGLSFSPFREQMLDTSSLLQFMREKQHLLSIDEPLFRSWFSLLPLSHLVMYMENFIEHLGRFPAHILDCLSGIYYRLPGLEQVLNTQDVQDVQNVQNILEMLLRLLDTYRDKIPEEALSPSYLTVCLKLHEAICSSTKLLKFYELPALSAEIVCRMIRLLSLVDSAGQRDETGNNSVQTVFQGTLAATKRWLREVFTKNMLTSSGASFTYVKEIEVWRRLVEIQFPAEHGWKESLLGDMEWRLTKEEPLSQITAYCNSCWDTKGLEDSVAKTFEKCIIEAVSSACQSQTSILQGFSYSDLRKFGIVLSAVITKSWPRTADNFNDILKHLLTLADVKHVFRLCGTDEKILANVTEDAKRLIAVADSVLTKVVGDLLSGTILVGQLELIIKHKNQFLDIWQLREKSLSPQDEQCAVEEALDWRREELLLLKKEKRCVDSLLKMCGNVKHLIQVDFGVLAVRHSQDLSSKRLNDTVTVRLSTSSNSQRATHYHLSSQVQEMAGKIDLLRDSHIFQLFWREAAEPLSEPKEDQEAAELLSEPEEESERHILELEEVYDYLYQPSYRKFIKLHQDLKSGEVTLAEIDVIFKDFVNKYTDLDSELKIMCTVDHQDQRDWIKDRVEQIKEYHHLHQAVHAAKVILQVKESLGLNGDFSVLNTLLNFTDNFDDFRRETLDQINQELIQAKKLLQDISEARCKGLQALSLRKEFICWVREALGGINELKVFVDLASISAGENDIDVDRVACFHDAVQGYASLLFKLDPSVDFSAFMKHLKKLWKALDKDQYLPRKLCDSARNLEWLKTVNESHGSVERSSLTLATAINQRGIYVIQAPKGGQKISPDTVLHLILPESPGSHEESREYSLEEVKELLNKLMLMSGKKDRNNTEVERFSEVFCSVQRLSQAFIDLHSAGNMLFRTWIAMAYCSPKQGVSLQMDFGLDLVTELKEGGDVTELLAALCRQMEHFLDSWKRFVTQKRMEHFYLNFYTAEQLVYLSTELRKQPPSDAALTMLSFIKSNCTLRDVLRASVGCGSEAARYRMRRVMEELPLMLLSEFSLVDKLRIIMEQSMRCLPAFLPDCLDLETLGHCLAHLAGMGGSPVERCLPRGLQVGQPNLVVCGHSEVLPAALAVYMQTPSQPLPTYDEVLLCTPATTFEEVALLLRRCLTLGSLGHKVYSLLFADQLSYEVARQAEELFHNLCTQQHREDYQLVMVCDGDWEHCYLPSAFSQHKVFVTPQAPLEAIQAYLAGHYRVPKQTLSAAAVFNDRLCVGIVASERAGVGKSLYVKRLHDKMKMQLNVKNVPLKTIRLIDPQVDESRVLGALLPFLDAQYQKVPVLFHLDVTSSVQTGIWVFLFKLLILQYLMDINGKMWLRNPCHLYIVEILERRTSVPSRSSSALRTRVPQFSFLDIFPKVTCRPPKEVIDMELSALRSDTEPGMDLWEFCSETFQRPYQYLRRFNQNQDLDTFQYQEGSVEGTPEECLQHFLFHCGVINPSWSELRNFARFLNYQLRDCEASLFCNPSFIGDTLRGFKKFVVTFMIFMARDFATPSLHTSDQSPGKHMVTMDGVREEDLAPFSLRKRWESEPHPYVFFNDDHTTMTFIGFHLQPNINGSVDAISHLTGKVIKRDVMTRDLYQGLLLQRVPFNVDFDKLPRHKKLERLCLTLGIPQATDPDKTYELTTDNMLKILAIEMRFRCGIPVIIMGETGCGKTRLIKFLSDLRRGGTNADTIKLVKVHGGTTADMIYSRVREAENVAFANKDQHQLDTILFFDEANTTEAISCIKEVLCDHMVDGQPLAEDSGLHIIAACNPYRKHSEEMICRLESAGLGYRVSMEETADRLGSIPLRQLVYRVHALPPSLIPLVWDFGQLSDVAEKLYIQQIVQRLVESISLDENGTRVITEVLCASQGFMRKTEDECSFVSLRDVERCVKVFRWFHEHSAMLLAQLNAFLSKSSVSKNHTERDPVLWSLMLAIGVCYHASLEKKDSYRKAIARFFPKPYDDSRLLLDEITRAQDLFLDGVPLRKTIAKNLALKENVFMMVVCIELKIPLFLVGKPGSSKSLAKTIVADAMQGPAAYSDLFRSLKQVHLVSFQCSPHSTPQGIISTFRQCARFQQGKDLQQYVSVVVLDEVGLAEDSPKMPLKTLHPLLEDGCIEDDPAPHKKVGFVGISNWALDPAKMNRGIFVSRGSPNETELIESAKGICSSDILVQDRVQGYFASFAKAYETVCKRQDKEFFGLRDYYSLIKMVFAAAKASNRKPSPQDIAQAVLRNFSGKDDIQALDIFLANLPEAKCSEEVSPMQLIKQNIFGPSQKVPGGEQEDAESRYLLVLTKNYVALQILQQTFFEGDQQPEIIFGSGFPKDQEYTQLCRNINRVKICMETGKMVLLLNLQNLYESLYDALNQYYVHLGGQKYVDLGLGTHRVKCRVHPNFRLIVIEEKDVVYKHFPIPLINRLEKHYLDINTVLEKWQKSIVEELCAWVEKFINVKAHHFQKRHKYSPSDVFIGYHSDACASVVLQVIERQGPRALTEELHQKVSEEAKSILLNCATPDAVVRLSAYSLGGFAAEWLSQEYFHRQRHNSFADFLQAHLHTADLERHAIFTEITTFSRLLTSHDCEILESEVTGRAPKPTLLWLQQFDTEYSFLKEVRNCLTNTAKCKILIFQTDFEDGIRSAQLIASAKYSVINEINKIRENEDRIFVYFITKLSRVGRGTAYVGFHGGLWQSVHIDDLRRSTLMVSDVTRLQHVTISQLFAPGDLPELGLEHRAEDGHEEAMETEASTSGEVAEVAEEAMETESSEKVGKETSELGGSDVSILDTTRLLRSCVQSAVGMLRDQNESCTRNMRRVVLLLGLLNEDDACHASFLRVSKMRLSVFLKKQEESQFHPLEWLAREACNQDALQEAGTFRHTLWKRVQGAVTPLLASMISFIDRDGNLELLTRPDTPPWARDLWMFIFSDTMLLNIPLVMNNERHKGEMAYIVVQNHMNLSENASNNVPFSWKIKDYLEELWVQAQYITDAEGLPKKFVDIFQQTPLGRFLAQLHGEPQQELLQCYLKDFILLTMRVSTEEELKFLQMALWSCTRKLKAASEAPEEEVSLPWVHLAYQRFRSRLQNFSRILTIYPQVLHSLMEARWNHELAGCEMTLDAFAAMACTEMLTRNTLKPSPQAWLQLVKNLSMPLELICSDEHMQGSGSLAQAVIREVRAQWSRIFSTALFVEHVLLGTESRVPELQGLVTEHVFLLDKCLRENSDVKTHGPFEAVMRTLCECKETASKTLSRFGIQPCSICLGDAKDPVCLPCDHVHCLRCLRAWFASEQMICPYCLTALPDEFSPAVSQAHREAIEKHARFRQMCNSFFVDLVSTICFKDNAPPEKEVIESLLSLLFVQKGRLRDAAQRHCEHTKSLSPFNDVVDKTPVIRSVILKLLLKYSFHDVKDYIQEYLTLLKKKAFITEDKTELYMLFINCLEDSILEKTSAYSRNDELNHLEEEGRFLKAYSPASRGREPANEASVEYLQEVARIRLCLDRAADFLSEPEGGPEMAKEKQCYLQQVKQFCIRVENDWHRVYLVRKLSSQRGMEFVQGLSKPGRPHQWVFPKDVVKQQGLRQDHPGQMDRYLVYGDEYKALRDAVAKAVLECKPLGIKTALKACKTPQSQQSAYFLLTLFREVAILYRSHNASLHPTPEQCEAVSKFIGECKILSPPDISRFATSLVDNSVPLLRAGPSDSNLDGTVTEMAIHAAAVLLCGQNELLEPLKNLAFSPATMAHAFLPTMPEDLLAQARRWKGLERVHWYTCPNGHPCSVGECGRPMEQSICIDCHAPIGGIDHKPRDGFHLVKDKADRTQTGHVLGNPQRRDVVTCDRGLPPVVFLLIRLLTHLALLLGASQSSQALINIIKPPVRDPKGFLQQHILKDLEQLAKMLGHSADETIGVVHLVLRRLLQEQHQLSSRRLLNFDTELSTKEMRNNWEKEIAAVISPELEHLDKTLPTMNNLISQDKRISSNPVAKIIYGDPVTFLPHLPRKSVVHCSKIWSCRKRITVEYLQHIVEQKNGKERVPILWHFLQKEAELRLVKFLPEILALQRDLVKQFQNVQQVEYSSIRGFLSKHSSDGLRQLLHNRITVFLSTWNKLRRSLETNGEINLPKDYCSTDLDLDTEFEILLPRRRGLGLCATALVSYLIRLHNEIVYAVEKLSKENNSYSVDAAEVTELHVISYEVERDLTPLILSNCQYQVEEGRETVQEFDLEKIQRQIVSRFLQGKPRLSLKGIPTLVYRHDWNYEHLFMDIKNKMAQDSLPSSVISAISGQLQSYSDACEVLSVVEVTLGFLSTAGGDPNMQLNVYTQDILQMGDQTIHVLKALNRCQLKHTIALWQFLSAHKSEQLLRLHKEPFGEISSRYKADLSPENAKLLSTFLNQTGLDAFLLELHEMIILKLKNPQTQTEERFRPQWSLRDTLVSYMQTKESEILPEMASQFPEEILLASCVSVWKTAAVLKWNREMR

Target: T1, Zinc Finger and BTB Domain Containing 20 (ZBTB20) (human (endogenous in SPCA1 and PC9)) (UniProt Q9HC78)
T1 sequence: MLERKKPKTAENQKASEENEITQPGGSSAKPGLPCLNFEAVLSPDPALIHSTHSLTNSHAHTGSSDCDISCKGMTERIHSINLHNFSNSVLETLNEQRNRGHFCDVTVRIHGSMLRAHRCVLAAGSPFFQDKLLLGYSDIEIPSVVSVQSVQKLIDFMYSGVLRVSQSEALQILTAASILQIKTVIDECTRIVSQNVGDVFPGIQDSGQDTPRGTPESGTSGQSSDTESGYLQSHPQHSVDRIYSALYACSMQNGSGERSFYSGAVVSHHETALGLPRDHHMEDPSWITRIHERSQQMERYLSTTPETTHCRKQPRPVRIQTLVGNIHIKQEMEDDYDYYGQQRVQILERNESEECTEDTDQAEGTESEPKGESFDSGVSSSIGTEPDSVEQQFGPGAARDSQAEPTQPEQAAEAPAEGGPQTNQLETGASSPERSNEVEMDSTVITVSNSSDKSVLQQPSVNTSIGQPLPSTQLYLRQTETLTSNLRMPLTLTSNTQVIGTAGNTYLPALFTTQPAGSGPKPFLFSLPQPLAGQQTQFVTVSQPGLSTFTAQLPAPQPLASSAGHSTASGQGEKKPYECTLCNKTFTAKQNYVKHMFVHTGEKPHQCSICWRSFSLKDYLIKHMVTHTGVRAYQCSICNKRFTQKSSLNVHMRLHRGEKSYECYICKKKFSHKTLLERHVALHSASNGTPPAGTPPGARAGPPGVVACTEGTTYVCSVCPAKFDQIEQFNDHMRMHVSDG
Assay: co-IP; RIPA lysates of SPCA1 and PC9 cells incubated overnight at 4 °C with specific antibodies or control IgG; captured on Protein A/G agarose beads for 2 h at 4 °C, washed four times; Western blot

binding: binds
Substance: Ring finger protein 213 (RNF213) (from UniProt Q63HN8 1-5207) (enzyme)
